Earlier results as cited in patent EP4567115A1, “METHOD FOR PRODUCING RIBOSOME IN CELL-FREE PROTEIN SYNTHESIS SYSTEM” (priority 2022, dated 2024).
For at least one compound, name, drawing or mass did not settle the structure.

System: ribosome with the A2058U CldR mutation
Settings: in the presence of clindamycin; cited from earlier work

## CCC[C@@H]1C[C@@H](C(=O)N[C@@H]([C@H]2O[C@H](SC)[C@H](O)[C@@H](O)[C@H]2O)[C@H](C)Cl)N(C)C1 [clindamycin]
  translational activity retained: ≤ 30%
